Measurements: patent publication US20240191267A1, “Tropane Alkaloid Transporters and Methods of Making Tropane Alkaloids Using the Same” (priority 2021, published 2024)

Test system: AbLP1
Test: Yeast toxicity assay and growth curves, AD1-8 expressing AbLP1
Text: (§1) Solid lines and shaded/hatched bars respectively indicate mean and standard deviation of n=3 biologically independent samples.
Heatmap values were extracted from mean growth curves in FIG. 80.
as §1, §1
Yeast toxicity assays and growth curves. Candidate transporters for use in non-plant cells for the purpose of enhancing or modulating metabolite localization may be characterized in any suitable strain of the non-plant organism of interest. […] An example protocol for the characterization of TA transporters in yeast is provided as follows. […] Strain AD1-8 is transformed as described earlier with a low-copy plasmid harboring a constitutively expressed transporter candidate or blue fluorescent protein as negative control and a suitable auxotrophic marker, such as URA3, LEU2, TRP1, or […]. Transformants are inoculated into 1 mL of selective YNB-G media and grown overnight (˜14-18 h) at 30° C. and 460 rpm. Overnight cultures are then diluted in triplicate to a starting concentration of OD600=0.02 into selective YNB-G media containing 0-20 mM alkaloids (or appropriate substrates to be tested), 0 or 0.1 M potassium phosphate buffer (K2HPO4/KH2PO4, pH 5.4-6.4) or any suitable pH buffer, and 0-100 mM NaCl or KCl or any other salts of interest in a 96-well plate (200 μl culture volume per well). Culture densities (OD600) are then measured every 30 min for 48 h in a suitable plate reader, such as a SpectraMax i3 plate reader (Molecular Devices), with chamber temperature 30° C. and orbital shaking every 30 min.
D. Smolke, Biosynthesis of medicinal tropane alkaloids in yeast.

Structure (SMILES): CN1[C@@H]2C[C@@H](OC(=O)[C@H](CO)c3ccccc3)C[C@H]1[C@@H]1O[C@@H]12 [scopolamine]
- sensitivity to alkaloid conferred by transporter expression (AD1-8 expressing AbLP1, tropine only at 1 mM): not

Structure (SMILES): CN1[C@@H]2CC[C@H]1C[C@@H](OC(=O)[C@H](CO)c1ccccc1)C2 [hyoscyamine]
- H+ dependence of hyoscyamine transport (AbLP1, 10 mM hyoscyamine, pH-buffered media (100 mM potassium phosphate)): did not appear to be pH-dependent
- effect of monovalent cations on transport (AbLP1, 20 mM hyoscyamine, 0-100 mM NaCl or KCl): slightly enhanced at high [Na^+] but not at high [K^+]
